The results in this text go back to paper PMC6494814, “Kremen1-induced cell death is regulated by homo- and heterodimerization” (Cell Death Discovery, 2019).

These are yes or no findings as the source states them, for the method shown. Binding seen in cells or lysates may run through a third protein. Binding can be weak; no strength is given. Sequences can lack the tags named with a protein.

For the experiment, the target named is T1, Kremen1 (Krm1), full length, Flag-tagged or HA-tagged (UniProt Q99N43).
T1 sequence: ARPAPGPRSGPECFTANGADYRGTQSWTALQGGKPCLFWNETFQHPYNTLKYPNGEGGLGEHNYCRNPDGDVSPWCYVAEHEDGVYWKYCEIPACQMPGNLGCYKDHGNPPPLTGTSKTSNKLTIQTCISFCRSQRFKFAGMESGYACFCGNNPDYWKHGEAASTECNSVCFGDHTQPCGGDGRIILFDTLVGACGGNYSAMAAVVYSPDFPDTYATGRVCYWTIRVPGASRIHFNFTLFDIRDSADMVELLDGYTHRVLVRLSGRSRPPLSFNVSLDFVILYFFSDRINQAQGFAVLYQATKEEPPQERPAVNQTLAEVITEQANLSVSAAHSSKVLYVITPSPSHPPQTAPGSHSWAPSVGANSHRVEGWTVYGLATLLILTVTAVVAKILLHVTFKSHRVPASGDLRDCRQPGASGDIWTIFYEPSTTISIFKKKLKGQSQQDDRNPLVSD
The experiment can be described thus: co-IP; HEK293T cells co-transfected, lysed after 24 h in 25 mM Tris pH7.4, 150 mM NaCl, 5 mM EDTA, 1% Triton-X100, 10% Glycerol; anti-Flag immunoprecipitation (Dynabeads proteinG), anti-HA western blot. For orientation: A western blot detects proteins with antibodies after separation by electrophoresis.

With “HA-Krm1ΔICD, Krm1 lacking the intracellular domain (domain or fragment)”, the binding entry was “binds”.

As for “HA-Krm2ΔICD, Krm2 lacking the intracellular domain (domain or fragment)”, the binding result is reported as “binds”.
